Data as given in PubChem BioAssay AID1159584 (Peter MacCallum Cancer Centre, 2016).
Test: 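Genes that CDH1-null MCF10A cells selectively depend on to survive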 (primary screen). System: human MCF10A breast epithelial cells, parental and CDH1-null. Reagent: siRNA against human genes. Detection: 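Cell viability by CellTiter-Glo ATP luminescence, each line scaled to the mean of mock wells across plates, then CDH1-null over parental ratio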. Reading the numbers: CDH1-null / parental viability ratio: higher = CDH1-null cells survive relatively better than parental; CDH1-null viability vs mock: higher = more viable CDH1-null cells.
In all, the deposit lists about 18,000 reagents; this is an unselected part. Reagents against one gene are numbered here. Further read-outs or replicates are left out here. Not given: the amount of reagent, the time to read-out.

| gene knocked down | siRNA no. | CDH1-null / parental viability ratio | CDH1-null viability vs mock (fraction of mock) |
| --- | --- | --- | --- |
| ANO7 | 1 | 1.13 | 0.85 |
| HELZ2 | 1 | 0.99 | 0.83 |
| ESM1 | 1 | 0.9 | 0.7 |
| ZNF835 | 1 | 0.63 | 0.74 |
| SMS | 1 | 0.86 | 0.72 |
| LRATD1 | 1 | 1.1 | 0.88 |
| MCM5 | 1 | 1.13 | 0.78 |
| SMPX | 1 | 1.22 | 1.04 |
| OR12D3 | 1 | 1.07 | 1.05 |

Next part; the last 2 above are carried over.
| gene knocked down | siRNA no. | CDH1-null / parental viability ratio | CDH1-null viability vs mock (fraction of mock) |
| --- | --- | --- | --- |
| SMPX | 1 | 1.22 | 1.04 |
| OR12D3 | 1 | 1.07 | 1.05 |
| NQO2 | 1 | 0.86 | 0.38 |
| DLK1 | 1 | 0.84 | 0.72 |
| THBS4 | 1 | 0.85 | 0.82 |
| SKIC8 | 1 | 0.9 | 0.63 |
| USP50 | 1 | 1.15 | 0.93 |
| MAP4K5 | 1 | 1 | 0.99 |
| HSPB9 | 1 | 1.04 | 0.52 |
| CCDC28A | 1 | 1.1 | 0.92 |
| RANBP3L | 1 | 1 | 0.95 |
| EPB41L4B | 1 | 0.97 | 0.76 |
| PROM1 | 1 | 0.92 | 0.66 |
| TGFB3 | 1 | 1.16 | 0.58 |
| ZNF616 | 1 | 1.15 | 1.01 |
| PSG3 | 1 | 0.94 | 0.82 |
| PRDM15 | 1 | 1.19 | 0.88 |
| WNK1 | 1 | 1.19 | 0.38 |
| WNK1 | 2 | 0.77 | 0.66 |
| IGFBP6 | 1 | 1.2 | 0.84 |
| SLC35B1 | 1 | 1.13 | 0.93 |
